{"source": "patent US9265777B2", "about": "“Antiparasitic agent for fish and method of controlling proliferation of fish parasites” (NIPPON SUISAN KAISHA, LTD., priority 2009, dated 2016)", "system": "Cryptocaryon irritans", "assay": "Examples 3 and 4: oral administration of single inhibitors and a combination against Cryptocaryon irritans on Pagrus major", "format": "in vivo", "settings": "300 mg/kg fish body weight/day for three days; 60 parasites per plot; P=<0.01", "from_the_text": "During the rearing period, 1.4 liters/min. of seawater was supplied. […] After exposure, seven fish each were moved into six 100-liter aquariums. During the rearing period, 1.4 liters/min. of seawater was supplied. […] Experimental plot: […]"}
{"smiles": "Cc1cc(NS(=O)(=O)c2ccc(N)cc2)no1", "note": "[SMXZ, sulfamethoxazole]", "values": [{"measurement": "growth rate of parasites (body length as percentage of control plot), difference to control plot", "result": "statistically significant difference"}]}
